Data taken from article doi:10.1101/2023.03.08.531793.
These are yes or no findings as the source states them, for the method shown. Some results given as binding are weak or reduced against the parent protein; the word gives no strength.

Amino acid sequences for entries named in this document (tags omitted).
UniProt Q8LDC8: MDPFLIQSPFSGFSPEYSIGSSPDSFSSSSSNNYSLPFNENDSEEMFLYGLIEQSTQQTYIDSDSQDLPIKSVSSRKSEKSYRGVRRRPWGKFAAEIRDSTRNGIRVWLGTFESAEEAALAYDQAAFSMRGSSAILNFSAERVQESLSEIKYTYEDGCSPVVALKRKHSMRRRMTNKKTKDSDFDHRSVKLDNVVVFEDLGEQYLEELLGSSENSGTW

Biological target: T1, pBD-ABI3 (Arabidopsis thaliana) (UniProt Q01593)
T1 sequence: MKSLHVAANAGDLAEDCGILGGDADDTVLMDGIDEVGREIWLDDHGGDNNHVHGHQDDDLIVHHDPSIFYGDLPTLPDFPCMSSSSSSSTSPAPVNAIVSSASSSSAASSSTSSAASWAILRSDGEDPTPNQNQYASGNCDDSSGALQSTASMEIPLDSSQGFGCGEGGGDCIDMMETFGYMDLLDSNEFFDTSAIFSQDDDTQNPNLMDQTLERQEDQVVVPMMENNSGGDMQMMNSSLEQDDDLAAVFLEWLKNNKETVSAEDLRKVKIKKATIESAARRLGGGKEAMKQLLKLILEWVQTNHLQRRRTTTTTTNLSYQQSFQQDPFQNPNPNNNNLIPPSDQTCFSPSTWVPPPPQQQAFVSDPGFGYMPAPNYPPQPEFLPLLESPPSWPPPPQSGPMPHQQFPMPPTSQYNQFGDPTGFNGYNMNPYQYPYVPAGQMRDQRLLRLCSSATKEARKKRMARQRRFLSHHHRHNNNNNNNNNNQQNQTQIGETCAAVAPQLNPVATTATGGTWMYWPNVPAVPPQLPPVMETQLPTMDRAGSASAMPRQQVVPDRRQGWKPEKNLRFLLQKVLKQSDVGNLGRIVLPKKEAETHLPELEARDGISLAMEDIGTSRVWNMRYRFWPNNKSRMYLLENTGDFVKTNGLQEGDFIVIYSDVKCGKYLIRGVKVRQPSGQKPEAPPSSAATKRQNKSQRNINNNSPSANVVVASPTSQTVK
Assay: two-hybrid

For pAD-ERF1 (from UniProt Q8LDC8 1-218), the binding was “binds”.
